Experimental data published in the supplement of paper PMC10849652.
The list shows a part of the results.

Amino acid sequences for entries named in this document (tags omitted). A change or cut given only in a name is not applied to a line headed by its entry.
UniProt P29372, whole entry, looked up: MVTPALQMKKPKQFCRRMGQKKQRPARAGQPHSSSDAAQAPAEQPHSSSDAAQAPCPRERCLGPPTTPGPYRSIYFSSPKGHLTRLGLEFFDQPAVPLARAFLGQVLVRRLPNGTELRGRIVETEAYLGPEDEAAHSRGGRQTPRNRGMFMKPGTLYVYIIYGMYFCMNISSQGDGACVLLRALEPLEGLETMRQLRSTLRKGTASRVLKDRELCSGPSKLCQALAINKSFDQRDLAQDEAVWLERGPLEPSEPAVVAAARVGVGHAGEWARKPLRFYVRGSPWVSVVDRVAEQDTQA
UniProt Q14165: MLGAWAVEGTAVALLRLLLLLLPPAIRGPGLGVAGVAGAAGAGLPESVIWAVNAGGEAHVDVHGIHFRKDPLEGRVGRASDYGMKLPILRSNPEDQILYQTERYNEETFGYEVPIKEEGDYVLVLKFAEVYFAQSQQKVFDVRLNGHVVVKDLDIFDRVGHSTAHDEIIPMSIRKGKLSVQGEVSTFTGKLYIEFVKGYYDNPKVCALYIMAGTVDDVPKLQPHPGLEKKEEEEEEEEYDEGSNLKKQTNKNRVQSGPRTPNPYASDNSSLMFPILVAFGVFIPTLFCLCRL
UniProt Q96EY8: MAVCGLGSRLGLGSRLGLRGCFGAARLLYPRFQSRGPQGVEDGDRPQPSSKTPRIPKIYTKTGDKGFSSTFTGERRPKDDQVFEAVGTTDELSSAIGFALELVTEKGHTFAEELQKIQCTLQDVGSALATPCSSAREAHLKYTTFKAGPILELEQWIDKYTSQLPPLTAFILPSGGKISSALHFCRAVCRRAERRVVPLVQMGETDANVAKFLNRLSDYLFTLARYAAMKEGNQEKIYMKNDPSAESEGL
UniProt Q8N4V1: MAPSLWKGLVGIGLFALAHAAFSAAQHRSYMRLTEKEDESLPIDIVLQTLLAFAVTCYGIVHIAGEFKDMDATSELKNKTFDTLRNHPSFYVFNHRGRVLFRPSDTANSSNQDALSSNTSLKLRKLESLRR
UniProt Q9UNW1: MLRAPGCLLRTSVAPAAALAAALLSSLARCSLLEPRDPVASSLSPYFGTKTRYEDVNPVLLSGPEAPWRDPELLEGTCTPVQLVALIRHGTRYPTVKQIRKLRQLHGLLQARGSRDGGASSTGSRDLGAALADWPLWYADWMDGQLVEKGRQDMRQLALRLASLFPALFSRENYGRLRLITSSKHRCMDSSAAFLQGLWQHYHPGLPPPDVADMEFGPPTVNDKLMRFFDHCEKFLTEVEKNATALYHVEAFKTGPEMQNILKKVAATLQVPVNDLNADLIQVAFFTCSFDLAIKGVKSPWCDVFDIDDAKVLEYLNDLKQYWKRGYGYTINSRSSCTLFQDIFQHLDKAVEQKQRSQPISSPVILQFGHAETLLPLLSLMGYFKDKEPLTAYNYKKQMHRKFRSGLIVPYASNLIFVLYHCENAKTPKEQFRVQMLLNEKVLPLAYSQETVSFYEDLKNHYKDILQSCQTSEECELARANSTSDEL
UniProt Q8TAP9: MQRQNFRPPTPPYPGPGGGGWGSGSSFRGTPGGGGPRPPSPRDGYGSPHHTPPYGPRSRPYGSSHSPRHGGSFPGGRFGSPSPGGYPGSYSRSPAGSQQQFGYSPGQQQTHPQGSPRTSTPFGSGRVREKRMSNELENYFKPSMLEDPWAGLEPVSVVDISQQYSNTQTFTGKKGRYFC
UniProt Q9UBU8, whole entry, looked up: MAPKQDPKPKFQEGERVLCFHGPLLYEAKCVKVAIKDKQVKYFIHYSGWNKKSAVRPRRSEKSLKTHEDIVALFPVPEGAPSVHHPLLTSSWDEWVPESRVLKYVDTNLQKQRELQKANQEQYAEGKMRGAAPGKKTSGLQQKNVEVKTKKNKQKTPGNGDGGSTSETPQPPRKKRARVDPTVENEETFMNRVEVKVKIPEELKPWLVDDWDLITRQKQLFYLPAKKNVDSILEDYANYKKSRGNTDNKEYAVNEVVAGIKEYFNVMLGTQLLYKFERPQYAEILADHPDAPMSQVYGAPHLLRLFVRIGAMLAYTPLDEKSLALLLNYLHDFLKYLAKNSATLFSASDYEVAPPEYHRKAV
UniProt O75352: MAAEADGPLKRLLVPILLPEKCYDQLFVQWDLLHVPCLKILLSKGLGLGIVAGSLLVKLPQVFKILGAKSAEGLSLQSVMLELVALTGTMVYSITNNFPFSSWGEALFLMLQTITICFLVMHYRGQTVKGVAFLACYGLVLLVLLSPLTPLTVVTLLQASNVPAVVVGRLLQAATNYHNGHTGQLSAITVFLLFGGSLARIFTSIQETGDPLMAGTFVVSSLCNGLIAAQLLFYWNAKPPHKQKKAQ
UniProt A9UHW6: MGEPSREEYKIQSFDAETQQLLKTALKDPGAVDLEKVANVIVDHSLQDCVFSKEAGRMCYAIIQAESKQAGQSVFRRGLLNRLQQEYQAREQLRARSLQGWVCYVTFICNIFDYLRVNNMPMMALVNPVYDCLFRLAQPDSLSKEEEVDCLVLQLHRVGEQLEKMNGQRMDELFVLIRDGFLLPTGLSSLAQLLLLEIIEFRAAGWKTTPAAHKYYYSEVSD

Key:
Assay in all cases: log2 fold change, soluble protein after heating vs DMSO (PISA); higher = thermal stabilisation; K562 cells, 10 uM, 30 min; active = over 0.2 and 3.5 SD of the protein, either way, in both replicates (recomputed)
[1] = compound: CC[C@@H]1C(=O)N(C)c2cnc(Nc3ccc(C(=O)NC4CCN(C)CC4)cc3OC)nc2N1C1CCCC1
Summary of the method: (§1)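 Quantification of soluble protein used TMTpro 16plex LC-MS/MS, with channel sums equalised. Samples were the supernatant after 21,000xg for 90 min of pooled aliquots from K562 cells (2×10^6 cells/mL) treated with 10 μM compound for 30 min, heated for 3 min over 48°C-58°C, and extracted in PBS with 0.5% NP-40 at 4°C. Values, from duplicates, describe thermal stability against control samples on a log2 fold-change scale.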

volasertib = compound: CC[C@@H]1C(=O)N(C)c2cnc(Nc3ccc(C(=O)N[C@H]4CC[C@H](N5CCN(CC6CC6)CC5)CC4)cc3OC)nc2N1C(C)C [volasertib]
Summary of the method: as §1

[2] = compound: CC[C@H](C)N1C=C(C2=C(C=C(C=C21)C3=CN=C(C=C3)N4CCNCC4)C(=O)NCC5=C(C=C(NC5=O)C)C)C
Summary of the method: as §1

epoxomicin = compound: CC[C@H](C)[C@@H](C(=O)N[C@@H]([C@@H](C)O)C(=O)N[C@@H](CC(C)C)C(=O)[C@]1(CO1)C)NC(=O)[C@H]([C@@H](C)CC)N(C)C(=O)C [epoxomicin]
Summary of the method: as §1

[3] = compound: CCn1c(C(=O)N(C2CC2)C2CC2)cc2c3c(ncn3C)c(Nc3cc(C)n(C)n3)nc21
Summary of the method: as §1

[4] = compound: CCn1cc(-c2ccnc3[nH]c(-c4cccc(CN(C)C)c4)cc23)c(-c2ccc(NC(=O)N(C)C)cc2)n1
Summary of the method: as §1

[5] = compound: CN(C)CC(=O)Nc1ccc2[nH]c(=O)c3ccccc3c2c1
Summary of the method: as §1

rosiglitazone = compound: CN(CCOC1=CC=C(C=C1)C[C@H]2C(=O)NC(=O)S2)C3=CC=CC=N3 (racemic) [rosiglitazone]
Summary of the method: as §1

[6] = compound: CN1C2=C(C3=C1C(=O)N(N=C3)CC4=CC(=CC=C4)N)SC(=C2)S(=O)C
Summary of the method: as §1

[7] = compound: CN1CCC(CNc2ccc3ncc(-c4cccc(OC(F)(F)F)c4)n3n2)CC1
Summary of the method: as §1

saracatinib = compound: CN1CCN(CCOc2cc(OC3CCOCC3)c3c(Nc4c(Cl)ccc5c4OCO5)ncnc3c2)CC1 [saracatinib]
Summary of the method: as §1

sotrastaurin = compound: CN1CCN(c2nc(C3=C(c4c[nH]c5ccccc45)C(=O)NC3=O)c3ccccc3n2)CC1 [sotrastaurin]
Summary of the method: as §1

alvocidib = compound: CN1CC[C@H](c2c(O)cc(O)c3c(=O)cc(-c4ccccc4Cl)oc23)[C@H](O)C1 [alvocidib]
Summary of the method: as §1

Tubastatin A = compound: CN1CCc2c(c3ccccc3n2Cc2ccc(C(=O)NO)cc2)C1 [Tubastatin A]
Summary of the method: as §1

[8] = compound: CNC(=O)C1=CC=CC=C1NC2=NC(=NC=C2Cl)NC3=C(C=C(C=C3)N4CCOCC4)OC
Summary of the method: as §1

defactinib = compound: CNC(=O)c1ccc(Nc2ncc(C(F)(F)F)c(NCc3nccnc3N(C)S(C)(=O)=O)n2)cc1 [defactinib]
Summary of the method: as §1

rucaparib = compound: CNCc1ccc(-c2[nH]c3cc(F)cc4c3c2CCNC4=O)cc1 [rucaparib]
Summary of the method: as §1

[9] = compound: CNc1nc(-c2ccc3c(N)n[nH]c3c2)cc(N2C[C@@H](C(=O)NC3CCCCC3)CC[C@H]2C)n1
Summary of the method: as §1

encorafenib = compound: COC(=O)N[C@@H](C)CNc1nccc(-c2cn(C(C)C)nc2-c2cc(Cl)cc(NS(C)(=O)=O)c2F)n1 [encorafenib]
Summary of the method: as §1

[10] = compound: COC(=O)[C@H](CCSC)NC(=O)C1=C(C=C(C=C1)NC[C@H](CS)N)C2=CC=CC=C2
Summary of the method: as §1

Measured: log2 fold change

MPG (UniProt P29372)
inactive: [1] 0.062 | volasertib 0.068 | [2] 0.037 | epoxomicin -0.068 | [3] 0.034 | [4] -0.052 | [5] -0.068 | rosiglitazone 0.022 | [6] 0.022 | [7] -0.002 | saracatinib -0.002 | sotrastaurin -0.015 | alvocidib 0.026 | Tubastatin A 0.029 | [8] -0.02 | defactinib 0.042 | rucaparib 0.059 | [9] 0.077 | encorafenib 0.024 | [10] 0.054

MRPL53 (UniProt Q96EL3)
inactive: [1] 0.108 | volasertib 0.243 | [2] 0 | epoxomicin 0.096 | [3] 0 | [4] 0.113 | [5] -0.017 | rosiglitazone -0.071 | [6] 0.028 | [7] 0.203 | saracatinib -0.247 | sotrastaurin -0.012 | alvocidib 0.218 | Tubastatin A 0.066 | [8] 0.062 | defactinib 0.182 | rucaparib 0.11 | [9] 0.005 | encorafenib 0.081 | [10] -0.003

MLEC (UniProt Q14165)
inactive: [1] -0.011 | volasertib -0.065 | [2] 0.024 | epoxomicin -0.014 | [3] 0.051 | [4] 0.003 | [5] -0.015 | rosiglitazone 0.005 | [6] -0.014 | [7] 0.05 | saracatinib -0.048 | sotrastaurin -0.016 | alvocidib 0.015 | Tubastatin A 0.004 | [8] -0.004 | defactinib 0.011 | rucaparib 0.002 | [9] 0.009 | encorafenib 0.032 | [10] -0.028

MRPL14 (UniProt Q6P1L8)
inactive: [1] 0.157 | volasertib -0.026 | [2] 0.024 | epoxomicin -0.054 | [3] 0.079 | [4] -0.089 | [5] 0.077 | rosiglitazone -0.011 | [6] -0.043 | [7] 0.083 | saracatinib 0.022 | sotrastaurin 0.029 | alvocidib 0.001 | Tubastatin A -0.045 | [8] -0.01 | defactinib -0.009 | rucaparib 0.033 | [9] 0.062 | encorafenib -0.022 | [10] -0.046

MMAB (UniProt Q96EY8)
inactive: [1] 0.037 | volasertib -0.025 | [2] -0.035 | epoxomicin -0.035 | [3] -0.006 | [4] 0.03 | [5] -0.025 | rosiglitazone 0.005 | [6] -0.037 | [7] -0.011 | saracatinib 0.029 | sotrastaurin 0.07 | alvocidib -0.006 | Tubastatin A 0.036 | [8] -0.025 | defactinib 0.019 | rucaparib -0.024 | [9] -0.035 | encorafenib -0.032 | [10] -0.06

MMGT1 isoform 2 (UniProt Q8N4V1)
inactive: [1] 0.052 | volasertib -0.057 | [2] 0.016 | epoxomicin 0.016 | [3] -0.004 | [4] 0.045 | [5] -0.044 | rosiglitazone -0.01 | [6] -0.055 | [7] -0.037 | saracatinib 0.048 | sotrastaurin -0.032 | alvocidib 0.002 | Tubastatin A -0.008 | [8] 0.04 | defactinib -0.022 | rucaparib -0.016 | [9] -0.022 | encorafenib 0 | [10] -0.032

MRPL32 (UniProt Q9BYC8)
inactive: [1] 0.035 | volasertib 0.189 | [2] -0.052 | epoxomicin -0.092 | [3] 0.109 | [4] 0.067 | [5] -0.105 | rosiglitazone -0.07 | [6] 0.109 | [7] 0.105 | saracatinib 0.001 | sotrastaurin 0.172 | alvocidib 0.104 | Tubastatin A 0.002 | [8] -0.05 | defactinib 0.111 | rucaparib 0.166 | [9] -0.113 | encorafenib 0.02 | [10] 0.018

MINPP1 (UniProt Q9UNW1)
inactive: [1] 0.014 | volasertib 0.006 | [2] 0.074 | epoxomicin 0.04 | [3] 0.042 | [4] 0.02 | [5] -0.002 | rosiglitazone -0.018 | [6] -0.001 | [7] 0.07 | saracatinib 0.037 | sotrastaurin 0.043 | alvocidib -0.014 | Tubastatin A -0.003 | [8] 0.02 | defactinib -0.005 | rucaparib 0.003 | [9] -0.079 | encorafenib 0.012 | [10] 0.008

MRPL13 (UniProt Q9BYD1)
inactive: [1] -0.009 | volasertib 0.18 | [2] 0.062 | epoxomicin 0.034 | [3] -0.047 | [4] -0.027 | [5] -0.001 | rosiglitazone 0.03 | [6] 0.013 | [7] 0.094 | saracatinib -0.078 | sotrastaurin -0.022 | alvocidib 0.006 | Tubastatin A 0.165 | [8] -0.041 | defactinib 0.141 | rucaparib 0.054 | [9] 0.103 | encorafenib 0.092 | [10] -0.164

2 entries picked at random from those above:
MRPL32 (UniProt Q9BYC8)
inactive: [1] 0.035 | volasertib 0.189 | [2] -0.052 | epoxomicin -0.092 | [3] 0.109 | [4] 0.067 | [5] -0.105 | rosiglitazone -0.07 | [6] 0.109 | [7] 0.105 | saracatinib 0.001 | sotrastaurin 0.172 | alvocidib 0.104 | Tubastatin A 0.002 | [8] -0.05 | defactinib 0.111 | rucaparib 0.166 | [9] -0.113 | encorafenib 0.02 | [10] 0.018

MRPL53 (UniProt Q96EL3)
inactive: [1] 0.108 | volasertib 0.243 | [2] 0 | epoxomicin 0.096 | [3] 0 | [4] 0.113 | [5] -0.017 | rosiglitazone -0.071 | [6] 0.028 | [7] 0.203 | saracatinib -0.247 | sotrastaurin -0.012 | alvocidib 0.218 | Tubastatin A 0.066 | [8] 0.062 | defactinib 0.182 | rucaparib 0.11 | [9] 0.005 | encorafenib 0.081 | [10] -0.003

(list continues)

MPLKIP (UniProt Q8TAP9)
inactive: [1] 0.042 | volasertib 0.122 | [2] -0.077 | epoxomicin -0.037 | [3] -0.021 | [4] -0.021 | [5] 0.015 | rosiglitazone -0.026 | [6] 0.001 | [7] -0.021 | saracatinib 0.006 | sotrastaurin 0.099 | alvocidib 0.054 | Tubastatin A -0.056 | [8] 0.18 | defactinib 0.049 | rucaparib 0.006 | [9] -0.06 | encorafenib -0.02 | [10] -0.032

MORF4L1 isoform 2 (UniProt Q9UBU8)
inactive: [1] 0.021 | volasertib -0.162 | [2] -0.016 | epoxomicin 0.193 | [3] 0.003 | [4] 0.006 | [5] -0.053 | rosiglitazone 0.013 | [6] 0.026 | [7] -0.048 | saracatinib -0.065 | sotrastaurin 0.043 | alvocidib -0.048 | Tubastatin A 0.021 | [8] -0.005 | defactinib -0.077 | rucaparib -0.062 | [9] -0.003 | encorafenib 0.085 | [10] 0.083

MRPL45 (UniProt Q9BRJ2)
inactive: [1] 0.029 | volasertib 0.126 | [2] 0.098 | epoxomicin -0.062 | [3] -0.061 | [4] -0.069 | [5] 0.03 | rosiglitazone 0.023 | [6] 0.087 | [7] 0.101 | saracatinib -0.122 | sotrastaurin -0.076 | alvocidib 0.001 | Tubastatin A 0.056 | [8] -0.012 | defactinib 0.124 | rucaparib 0.12 | [9] 0.199 | encorafenib 0.057 | [10] -0.05

MPDU1 (UniProt O75352)
inactive: [1] 0.055 | volasertib -0.037 | [2] 0.023 | epoxomicin -0.05 | [3] -0.042 | [4] -0.042 | [5] 0.134 | rosiglitazone 0.021 | [6] -0.112 | [7] 0.088 | saracatinib 0.12 | sotrastaurin -0.02 | alvocidib 0.025 | Tubastatin A -0.055 | [8] -0.082 | defactinib -0.017 | rucaparib -0.113 | [9] -0.066 | encorafenib 0.054 | [10] 0.055

MRPL27 (UniProt Q9P0M9)
inactive: [1] 0.059 | volasertib 0.28 | [2] 0.206 | epoxomicin 0.103 | [3] -0.072 | [4] 0.023 | [5] -0.118 | rosiglitazone -0.033 | [6] 0.103 | [7] 0.13 | saracatinib -0.158 | sotrastaurin -0.052 | alvocidib 0.117 | Tubastatin A 0.061 | [8] 0.069 | defactinib 0.27 | rucaparib 0.125 | [9] 0.162 | encorafenib 0.089 | [10] -0.061

MIF4GD isoform 3 (UniProt A9UHW6)
inactive: [1] 0.057 | volasertib 0.049 | [2] -0.023 | epoxomicin 0.076 | [3] -0.015 | [4] 0.018 | [5] 0.013 | rosiglitazone 0.027 | [6] -0.06 | [7] 0.033 | saracatinib 0.062 | sotrastaurin 0.031 | alvocidib -0.02 | Tubastatin A 0.027 | [8] 0.01 | defactinib -0.016 | rucaparib -0.075 | [9] 0.001 | encorafenib 0.096 | [10] -0.051

MRPL10 isoform 2 (UniProt Q7Z7H8)
inactive: [1] -0.111 | volasertib 0.04 | [2] 0.089 | epoxomicin -0.041 | [3] -0.081 | [4] -0.152 | [5] -0.041 | rosiglitazone -0.029 | [6] 0.076 | [7] 0.066 | saracatinib -0.216 | sotrastaurin -0.002 | alvocidib 0.119 | Tubastatin A 0.05 | [8] -0.152 | defactinib 0.092 | rucaparib 0.077 | [9] 0.168 | encorafenib 0.077 | [10] -0.025
